For at least one compound, name, drawing or mass did not settle the structure.
System: reabsorption of noradrenaline in synaptosomes
Assay: Inhibition of reabsorption of noradrenaline in synaptosomes (Method 4)
Format: biochemical
Settings: rat brain synaptosomes, pH 7.4, 37° C., 4 minutes; read-out: IC50, inhibition of the absorption of 14C noradrenaline (Method 4)

`Cc1cccc(C(n2ccnc2)C2(O)C3CC4CC(C3)CC2C4)c1` (stereo not shown) [Example 106, (2-Hydroxy-2-adamantyl)-1-imidazolyl-(3-tolyl)-methane] showed an IC50 of 120 nM.

Source: US5100890A, “Arylmethylazoles and their salts, agents which contain these compounds, and their use” (priority 1985, dated 1992)
